PubChem BioAssay AID2685 (National Center for Advancing Translational Sciences (NCATS), 2010)
The list shows a part of the results. These are further read-outs of the screen, such as a control signal, another cell line or another target. No call is given for them. Most of these compounds were active or inconclusive in the main read-out, so they are no random draw. Words in brackets tell the shape of the fitted curve; partial curves, single points and poor fits give uncertain potencies.

Experiment: qHTS Assay for Lipid Storage Modulators in Drosophila S3 Cells;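 on cell number change: cells counted by Cell Tracker Red CMTPX staining in the red channel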
Details: BODIPY lipid droplet fluorescence, 18-24 h; for cell number change: measured here: cell count max response, cells fed with added oleic acid
How it was run: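 Laser-scanning cytometry quantifies lipid droplet accumulation (500–530 nm total intensity; droplet/cell object ratio) in oleic acid-fed (400 uM added) Drosophila S3 cells treated with a concentration series. 20 uM Triacsin C defined 100% inhibition.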

[1] = measured here: lipid fluorescence (Fed channel) AC50, cells fed with added oleic acid
[2] = measured here: cell number channel AC50, cells fed with added oleic acid

| Structure (SMILES) | cell number change | AC50 [1] | AC50 [2] |
| --- | --- | --- | --- |
| N#Cc1ccccc1S(=O)(=O)N1CCN(C(=O)CCc2ccccc2)CC1 | 2.65% | 0.58 µM [rising, single point] | – |
| O=c1cnn(Cc2c(Cl)cccc2Cl)c2ccccc12 | 17.9% | 5.8 µM [rising, full curve] | – |
| Cc1cc(NC(=O)c2cncc(Br)c2)n(-c2ccccn2)n1 | 43.5% | 2.91 µM [rising, partial curve] | 2.91 µM [rising, partial curve] |
| CN(CC(=O)Nc1cccc(F)c1)C(=O)Cc1n[nH]c(=O)c2ccccc12 | -20% | – | – |
| C=CCn1c(SCC(=O)Nc2cccc(C(=O)OC)c2)nnc1C(C)NC(=O)c1cccs1 (stereo not drawn) | 16.5% | 29.1 µM [rising, single point] | – |
| CCC(CO)n1c(SCc2cc([N+](=O)[O-])cc3c2OCOC3)nc2ccccc2c1=O (stereo not drawn) | -66.7% | 20.6 µM [rising, single point] | 29.1 µM [falling, single point] |
| O=C(CC(=O)NCc1cccnc1)NCc1cccnc1 | -10.1% | 18.4 µM [falling, partial curve] | – |
| C(=C/c1nccc2c1[nH]c1ccccc12)/c1ccc2c(c1)OCO2 | -31.1% | 25.9 µM [falling, partial curve] | 13 µM [falling, partial curve] |
| CC(C)c1ccc(NC(=O)C2CSC3(C)CCC(=O)N23)cc1 (stereo not drawn) | 25.4% | 16.4 µM [rising, partial curve] | 0.259 µM [rising, full curve, poor fit] |
| CC(C)(CCC(=S)N1CCOCC1)C1CCCCC1 | 9.12% | 29.1 µM [rising, single point] | – |
| Cc1ccc(-c2c(C(=O)N/N=C/c3cccc(Cl)c3)nnn2-c2nonc2N)cc1 | 29.9% | – | – |
| O=C(NCCNC(=O)c1cc(OCC(F)(F)F)ccc1OCC(F)(F)F)Nc1cccc(C(F)(F)F)c1 | -52.3% | 25.9 µM [falling, partial curve] | 20.6 µM [falling, single point] |
| Cc1ccc(-n2nc3c(=O)n(CCCC(=O)NCc4cccc(F)c4)nc(C)c3c2C)cc1 | -1.15% | 29.1 µM [falling, single point] | – |
| COc1ccc(/[N+]([O-])=C/c2ccco2)cc1 | 3.13% | 0.517 µM [rising, partial curve, poor fit] | – |
| O=C(CNC(=S)N(CCCN1CCOCC1)Cc1cccs1)N1CCCCCC1 | 28.7% | 29.1 µM [rising, single point] | – |
| O=C(CSc1nc2ccccc2c(=O)[nH]1)N1CCN(S(=O)(=O)c2ccccc2)CC1 | -21.5% | – | 0.82 µM [rising, single point] |
| O=C(OCC#CCSc1nnc(-c2cccc3ccccc23)o1)c1cc2ccccc2o1 | – | 0.164 µM [rising, full curve, poor fit] | – |
| Cn1c(C(=O)N2CCN(C(=O)c3ccco3)CC2)cc2c(=O)n(C)c3ccccc3c21 | 31.3% | – | 32.6 µM [rising, single point] |
| COc1ccc(NC(=O)CCSc2cc(C)c3ccccc3n2)cc1 | 168% | – | – |
| Cc1ccc(-n2ncc3c(NCc4ccco4)ncnc32)c(C)c1 | – | – | 0.184 µM [rising, full curve, poor fit] |
| COc1ccccc1NC(C#N)c1ccccc1OCc1ccccc1 (stereo not drawn) | -2.25% | 14.6 µM [rising, partial curve, poor fit] | – |

Entries from the list above that have a carbonyl joined to an NH by a bond outside any ring:

| Structure (SMILES) | cell number change | AC50 [1] | AC50 [2] |
| --- | --- | --- | --- |
| Cc1cc(NC(=O)c2cncc(Br)c2)n(-c2ccccn2)n1 | 43.5% | 2.91 µM [rising, partial curve] | 2.91 µM [rising, partial curve] |
| CN(CC(=O)Nc1cccc(F)c1)C(=O)Cc1n[nH]c(=O)c2ccccc12 | -20% | – | – |
| C=CCn1c(SCC(=O)Nc2cccc(C(=O)OC)c2)nnc1C(C)NC(=O)c1cccs1 (stereo not drawn) | 16.5% | 29.1 µM [rising, single point] | – |
| O=C(CC(=O)NCc1cccnc1)NCc1cccnc1 | -10.1% | 18.4 µM [falling, partial curve] | – |
| CC(C)c1ccc(NC(=O)C2CSC3(C)CCC(=O)N23)cc1 (stereo not drawn) | 25.4% | 16.4 µM [rising, partial curve] | 0.259 µM [rising, full curve, poor fit] |
| Cc1ccc(-c2c(C(=O)N/N=C/c3cccc(Cl)c3)nnn2-c2nonc2N)cc1 | 29.9% | – | – |
| O=C(NCCNC(=O)c1cc(OCC(F)(F)F)ccc1OCC(F)(F)F)Nc1cccc(C(F)(F)F)c1 | -52.3% | 25.9 µM [falling, partial curve] | 20.6 µM [falling, single point] |
| Cc1ccc(-n2nc3c(=O)n(CCCC(=O)NCc4cccc(F)c4)nc(C)c3c2C)cc1 | -1.15% | 29.1 µM [falling, single point] | – |
| COc1ccc(NC(=O)CCSc2cc(C)c3ccccc3n2)cc1 | 168% | – | – |

(next part)

| Structure (SMILES) | cell number change | AC50 [1] | AC50 [2] |
| --- | --- | --- | --- |
| O=C(O)CC(NC(=O)C(F)(F)F)c1ccc2c(c1)OCO2 (stereo not drawn) | -56.3% | 1.46 µM [falling, full curve] | 2.06 µM [falling, partial curve] |
| C[C@@H](CSc1ccccc1)CN1CC[C@H](C(C)(C)C)CCC1=O | -3.89% | 25.9 µM [falling, single point] | – |
| COc1ccc(CN=Cc2c(C(=O)O)[nH]c3ccccc23)cc1 | -18.8% | 5.8 µM [falling, partial curve, poor fit] | 5.8 µM [falling, single point] |
| Cc1cc2n(n1)C(c1ccc3c(c1)OCO3)Nc1ccccc1-2 (stereo not drawn) | -23.1% | 0.58 µM [rising, full curve, poor fit] | – |
| Cc1cc(C(=O)NC2CCCc3ccccc32)c(C)o1 (stereo not drawn) | 45.1% | – | 5.17 µM [rising, single point] |
| O=S(=O)(c1ccccc1)N1CCN(Cc2ccccc2C(F)(F)F)CC1 | -1.25% | 7.31 µM [rising, single point] | – |
| Cc1nnc(N/N=C/c2ccc([N+](=O)[O-])cc2)n1N | -2.17% | – | – |
| CCOc1ccc(NC(=O)CN(C)C(=O)CSCc2c(C)noc2C)cc1OCC | -21.7% | – | – |
| Cc1ccnn1CC(=O)N/N=C/c1cccs1 | -3.54% | – | – |
| CCn1cc(C(=O)OCC(=O)Nc2cc(S(=O)(=O)N(C)C)ccc2C)c(=O)c2ccc(C)nc21 | – | 0.00461 µM [rising, full curve, poor fit] | – |
| CC(C)(C)C1CCc2c(sc3nc(SCC(N)=O)nc(N)c23)C1 (stereo not drawn) | -47.7% | 16.4 µM [falling, single point] | 18.4 µM [falling, single point] |
| CCOc1ccc(C2NC(=O)c3n[nH]c(C)c32)cc1 (stereo not drawn) | – | 0.103 µM [rising, full curve, poor fit] | – |
| CCCN1C(=O)c2cc(C(=O)NC3CCCCCC3)ccc2C1O (stereo not drawn) | – | 2.91 µM [rising, single point] | – |
| COc1ccc(NC(=O)c2ccccc2Oc2ccccc2)c(OC)c1 | -2.91% | – | – |
| COc1cccc(-c2cc3nc4c(c(N5CCC6(CC5)OCCO6)n3n2)CCCC4)c1 | – | 0.13 µM [falling, full curve, poor fit] | – |
| CCC1CCCCN1C(=S)Nc1ccc(S(=O)(=O)Nc2ncccn2)cc1 (stereo not drawn) | – | 29.1 µM [rising, single point] | – |
| COc1cc(NC(=O)C2CCCN2C(=O)OCc2ccccc2)cc(OC)c1 (stereo not drawn) | – | 2.59 µM [rising, partial curve] | 2.59 µM [rising, partial curve] |
| Cc1ccc(S(=O)(=O)NC(C)C(=O)OCC(=O)N(C)c2ccccc2)cc1 (stereo not drawn) | -12.1% | 0.0259 µM [falling, full curve, poor fit] | 2.59 µM [falling, single point] |
| COc1ccc(NC(=O)CCSc2nnnn2C)cc1 | 8.17% | – | – |
| CCCCn1c(N)c(N(CCOC)C(=O)c2cnc(C)cn2)c(=O)[nH]c1=O | 2.45% | 13 µM [rising, partial curve] | – |
| O=S(=O)(NCC(c1ccc2c(c1)OCO2)N1CCN(c2ccccc2)CC1)c1ccccc1 (stereo not drawn) | 150% | – | 29.1 µM [rising, single point] |

One compound at a time, as listed above.
CCCCn1c(N)c(N(CCOC)C(=O)c2cnc(C)cn2)c(=O)[nH]c1=O is listed with cell number change: 2.45%; AC50 [1]: 13 µM [rising, partial curve]
Cc1ccc(-c2c(C(=O)N/N=C/c3cccc(Cl)c3)nnn2-c2nonc2N)cc1 is listed with cell number change: 29.9%

Next entries

| Structure (SMILES) | cell number change | AC50 [1] | AC50 [2] |
| --- | --- | --- | --- |
| Cc1ccccc1-n1c(C)nnc1SCC(=O)N1CC(=O)Nc2ccccc21 | 2.66% | 23.1 µM [rising, single point] | – |
| O=C(CSc1nnc(NC(=O)c2cccc(Cl)c2)s1)NCC1CCCO1 (stereo not drawn) | 24.6% | – | – |
| C/C(=N\NS(=O)(=O)c1ccc(C)cc1)c1cccs1 | 7.26% | – | – |
| O=C(NCCc1ccco1)C(=O)NCCC1CCCCN1S(=O)(=O)c1ccccc1 (stereo not drawn) | -28.2% | 0.146 µM [falling, full curve, poor fit] | – |
| COc1ccc(Cl)cc1S(=O)(=O)Nc1ncn[nH]1 | 2.38% | – | 6.51 µM [rising, single point] |
| O=C(Nc1nc2ccc(F)cc2s1)C1CC(=O)N(c2ccc3c(c2)OCCO3)C1 (stereo not drawn) | -1.5% | – | – |
| CCN(CC)S(=O)(=O)c1cccc(NN=c2c(=O)c3ccccc3c2=O)c1 | 8.52% | 0.206 µM [rising, full curve, poor fit] | – |
| N#CC1=C(N)Oc2c(ccc3ccccc23)C1c1ccsc1 (stereo not drawn) | -15.4% | 2.59 µM [falling, full curve, poor fit] | – |
| CCC(C)NC(=O)COc1ccc(S(=O)(=O)N2CCOCC2)cc1 (stereo not drawn) | -11.9% | – | – |
| COCc1ccccc1C1=CC(=O)C[C@H](c2ccc(F)cc2)C1 | -26.8% | 1.16 µM [falling, single point] | 0.517 µM [falling, full curve, poor fit] |
| Cc1ccccc1OCCC(=O)Nc1cccc(S(=O)(=O)Nc2ccccc2Cl)c1 | 0.986% | 11.6 µM [rising, partial curve] | – |
| COc1ccc(C/C(N)=N/n2cnnc2)cc1 | – | 0.461 µM [falling, full curve] | – |
| Cc1ccc(N(C)C(=O)N2CCN(S(=O)(=O)c3ccc4ccccc4c3)CC2)cc1 | -8.28% | 0.0651 µM [rising, partial curve, poor fit] | – |
| O=C(COc1cccc2ccccc12)N/N=C/c1ccco1 | -19.1% | 0.92 µM [falling, full curve, poor fit] | – |
| CC(=O)Cc1nsc(NC(=O)c2ccc(COc3cccc(C)c3)o2)n1 | 8.26% | – | – |
| Fc1cccc(NC(=S)Nc2cccnc2)c1 | 6.95% | 0.794 µM [falling, single point] | – |
| CCC(c1nc2ccccc2c(=O)n1CCN1CCOCC1)N1C(=O)c2ccccc2C1=O (stereo not drawn) | -1.53% | – | – |
| CCCC(=O)N1CCN(c2ccc(NC(=O)c3ccc4c(c3)OCCO4)cc2)CC1 | 55.5% | 6.51 µM [rising, single point] | 18.4 µM [rising, partial curve] |
| CN(C(=O)COC(=O)c1ccc(-c2ccc(O)cc2)cc1)C1CCS(=O)(=O)C1 (stereo not drawn) | 4.1% | – | 6.51 µM [falling, single point] |
| CSc1nc(N)c(C#N)c(-c2ccc(Cl)cc2)c1C#N | 3.43% | – | 6.51 µM [rising, single point] |
